Test results taken from PMC9738581, “Dissection of Functional Domains of Orc1-2, the Archaeal Global DNA Damage-Responsive Regulator”.
Positions count from the first letter of the chain named. The comparison behind a weaker result is the experiment's own reference, which may not be listed here. Protein sequences can lack the tags named with them.

Assays:
Assay in all cases: EMSA
Conditions in all cases: EMSA: 20 mM HEPES pH 7.6, 10 mM (NH4)2SO4, 1 mM DTT, 0.2% Tween-20, 30 mM KCl, 40 °C 20 min, 2 nM probe; 8% native PAGE in 40 mM Tris, 20 mM boric acid; recombinant protein; protein details: His; label: 5'-32P
[1] = biological target: T1, Orc1-2 wH-m2 R381A,R383A (Saccharolobus islandicus REY15A) (UniProt F0NF18)
T1 sequence (looked up, limits assumed): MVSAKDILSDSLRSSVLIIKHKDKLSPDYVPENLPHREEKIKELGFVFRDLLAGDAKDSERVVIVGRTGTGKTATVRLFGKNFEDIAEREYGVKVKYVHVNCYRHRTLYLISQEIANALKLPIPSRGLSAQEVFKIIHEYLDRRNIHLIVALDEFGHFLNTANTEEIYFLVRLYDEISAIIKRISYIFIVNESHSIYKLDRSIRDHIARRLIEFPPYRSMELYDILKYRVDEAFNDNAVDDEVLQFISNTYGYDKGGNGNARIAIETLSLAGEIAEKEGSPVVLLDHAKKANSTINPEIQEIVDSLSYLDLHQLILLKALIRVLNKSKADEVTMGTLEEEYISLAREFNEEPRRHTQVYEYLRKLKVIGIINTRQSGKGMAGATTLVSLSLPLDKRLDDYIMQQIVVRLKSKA

[2] = biological target: T2, Orc1-2 WA K72A (Saccharolobus islandicus REY15A) (UniProt F0NF18)
T2 sequence (looked up, limits assumed): T1 sequence (looked up, limits assumed) with K72A, A381R, A383R

[3] = biological target: T3, Orc1-2 ISM G127D,L128D (Saccharolobus islandicus REY15A) (UniProt F0NF18)
T3 sequence (looked up, limits assumed): T1 sequence (looked up, limits assumed) with G127D, L128D, A381R, A383R

[4] = biological target: T4, Orc1-2 wH-m1 R353A,R354A (Saccharolobus islandicus REY15A) (UniProt F0NF18)
T4 sequence (looked up, limits assumed): T1 sequence (looked up, limits assumed) with R353A, R354A, A381R, A383R

Measured: binding result

CTATAAAGGAAGTTTTAAGTAATTTCGGTATTGTGTGAGTATATTT (double strand) [PupsE]
binds more weakly: all assays above
